Data reported in PMC8774046.

Sequences of proteins named here, by UniProt entry; tags and fusion partners are left off. A change or cut given only in a name is not applied to a line headed by its entry.
UniProt Q9SXA1: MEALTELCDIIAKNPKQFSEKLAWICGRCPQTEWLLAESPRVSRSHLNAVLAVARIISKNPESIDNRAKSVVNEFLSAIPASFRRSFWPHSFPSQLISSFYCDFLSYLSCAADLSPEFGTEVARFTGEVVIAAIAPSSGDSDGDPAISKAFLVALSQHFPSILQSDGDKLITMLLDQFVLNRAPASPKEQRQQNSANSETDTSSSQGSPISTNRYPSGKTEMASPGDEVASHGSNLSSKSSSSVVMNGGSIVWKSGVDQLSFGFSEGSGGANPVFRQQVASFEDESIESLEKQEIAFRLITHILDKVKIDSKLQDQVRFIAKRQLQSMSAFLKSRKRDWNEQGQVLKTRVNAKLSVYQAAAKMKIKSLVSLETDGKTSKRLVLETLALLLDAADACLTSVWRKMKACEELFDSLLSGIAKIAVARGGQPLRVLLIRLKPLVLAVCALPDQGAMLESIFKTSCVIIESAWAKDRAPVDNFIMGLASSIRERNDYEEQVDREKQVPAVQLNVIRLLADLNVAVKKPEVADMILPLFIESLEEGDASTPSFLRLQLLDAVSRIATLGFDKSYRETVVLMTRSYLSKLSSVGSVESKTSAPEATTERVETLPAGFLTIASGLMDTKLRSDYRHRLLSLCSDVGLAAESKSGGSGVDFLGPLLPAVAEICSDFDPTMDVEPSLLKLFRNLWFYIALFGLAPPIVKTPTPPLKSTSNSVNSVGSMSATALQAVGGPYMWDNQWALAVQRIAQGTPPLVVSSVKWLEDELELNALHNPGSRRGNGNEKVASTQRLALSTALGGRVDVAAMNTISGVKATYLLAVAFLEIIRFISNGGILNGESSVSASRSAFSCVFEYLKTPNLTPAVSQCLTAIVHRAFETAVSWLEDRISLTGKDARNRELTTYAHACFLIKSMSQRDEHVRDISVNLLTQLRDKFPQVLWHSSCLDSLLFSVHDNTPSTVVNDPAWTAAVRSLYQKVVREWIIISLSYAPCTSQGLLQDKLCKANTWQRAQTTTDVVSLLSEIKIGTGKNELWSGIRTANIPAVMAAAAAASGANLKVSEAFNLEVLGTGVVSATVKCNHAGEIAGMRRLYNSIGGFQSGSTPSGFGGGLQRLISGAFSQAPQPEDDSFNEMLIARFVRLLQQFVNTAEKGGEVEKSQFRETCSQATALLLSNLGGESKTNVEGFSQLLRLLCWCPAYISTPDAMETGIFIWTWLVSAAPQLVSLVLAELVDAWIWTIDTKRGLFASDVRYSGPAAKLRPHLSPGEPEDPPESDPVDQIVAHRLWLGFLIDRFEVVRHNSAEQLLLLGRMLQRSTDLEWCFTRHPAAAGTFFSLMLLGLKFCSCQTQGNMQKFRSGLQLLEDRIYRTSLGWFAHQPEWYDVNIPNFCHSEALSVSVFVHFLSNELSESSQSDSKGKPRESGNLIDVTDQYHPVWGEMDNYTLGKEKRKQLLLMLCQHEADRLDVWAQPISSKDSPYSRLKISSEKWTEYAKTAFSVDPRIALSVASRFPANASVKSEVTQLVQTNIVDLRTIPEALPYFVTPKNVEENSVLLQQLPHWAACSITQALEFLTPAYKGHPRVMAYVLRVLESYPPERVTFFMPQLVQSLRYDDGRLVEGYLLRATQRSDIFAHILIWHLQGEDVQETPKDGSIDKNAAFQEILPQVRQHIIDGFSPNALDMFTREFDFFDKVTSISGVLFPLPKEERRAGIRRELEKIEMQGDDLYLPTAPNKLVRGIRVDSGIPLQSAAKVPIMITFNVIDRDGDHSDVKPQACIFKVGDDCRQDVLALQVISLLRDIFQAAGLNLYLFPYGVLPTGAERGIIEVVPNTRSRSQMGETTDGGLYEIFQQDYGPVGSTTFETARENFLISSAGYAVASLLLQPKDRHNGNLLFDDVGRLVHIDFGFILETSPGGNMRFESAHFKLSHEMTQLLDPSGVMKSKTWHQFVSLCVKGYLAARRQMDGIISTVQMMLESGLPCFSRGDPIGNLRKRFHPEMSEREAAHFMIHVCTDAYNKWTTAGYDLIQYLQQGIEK
UniProt Q9FMI8: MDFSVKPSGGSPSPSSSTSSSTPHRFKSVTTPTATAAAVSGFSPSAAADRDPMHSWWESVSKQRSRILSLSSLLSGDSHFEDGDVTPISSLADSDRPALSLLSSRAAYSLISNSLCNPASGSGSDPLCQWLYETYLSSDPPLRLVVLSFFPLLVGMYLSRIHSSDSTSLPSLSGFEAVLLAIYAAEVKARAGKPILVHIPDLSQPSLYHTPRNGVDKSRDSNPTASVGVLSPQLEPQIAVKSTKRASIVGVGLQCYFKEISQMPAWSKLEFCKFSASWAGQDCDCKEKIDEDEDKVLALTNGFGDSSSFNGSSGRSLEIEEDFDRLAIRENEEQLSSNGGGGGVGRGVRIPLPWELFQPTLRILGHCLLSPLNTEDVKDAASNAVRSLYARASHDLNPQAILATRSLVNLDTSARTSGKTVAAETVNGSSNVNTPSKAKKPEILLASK

Tests used:
[1] = target: T1, NPGR2–mCITRINE (Arabidopsis thaliana) (UniProt Q66GN3); test: affinity purification with mass spectrometry; IP of mCITRINE fusions from transgenic Arabidopsis lines; trypsin digest, LC-MS/MS (Orbitrap); controls myristoylation–2xmCITRINE and mCITRINE–NES–mCITRINE
T1 sequence: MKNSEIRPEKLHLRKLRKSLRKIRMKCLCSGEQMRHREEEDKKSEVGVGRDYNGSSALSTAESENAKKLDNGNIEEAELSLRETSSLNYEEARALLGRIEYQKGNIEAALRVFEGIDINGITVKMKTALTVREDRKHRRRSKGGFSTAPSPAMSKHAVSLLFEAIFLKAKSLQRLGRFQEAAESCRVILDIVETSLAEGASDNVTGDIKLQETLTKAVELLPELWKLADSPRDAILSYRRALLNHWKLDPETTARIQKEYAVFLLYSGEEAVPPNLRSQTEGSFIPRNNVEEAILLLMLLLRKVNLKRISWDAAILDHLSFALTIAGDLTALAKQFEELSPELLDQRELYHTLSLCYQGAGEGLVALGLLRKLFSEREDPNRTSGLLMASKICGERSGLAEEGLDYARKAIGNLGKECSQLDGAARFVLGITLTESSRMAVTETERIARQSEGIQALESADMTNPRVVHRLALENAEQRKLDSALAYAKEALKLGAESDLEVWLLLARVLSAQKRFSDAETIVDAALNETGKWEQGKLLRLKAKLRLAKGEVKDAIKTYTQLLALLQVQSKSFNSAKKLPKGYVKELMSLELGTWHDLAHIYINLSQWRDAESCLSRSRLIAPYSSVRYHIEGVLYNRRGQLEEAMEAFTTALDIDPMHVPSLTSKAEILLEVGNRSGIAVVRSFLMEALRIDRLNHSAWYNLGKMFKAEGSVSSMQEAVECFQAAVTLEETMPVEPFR

[2] = target: mCITRINE–PI4Kα1 (Arabidopsis thaliana) (UniProt Q9SXA1); test: as above

binding [1]	binding [2]	Substance
binds	binds	HYCCIN-CONTAINING2 (endogenous) (from UniProt Q9FMI8)
binds	–	PI4Kα1 (endogenous, native) (from UniProt Q9SXA1 1-2028) (enzyme)

No constants are given. Whether binding was seen depends on the method and setting. In cells and extracts the contact can be indirect. A yes stands for co-enrichment or nearness to the bait. Other partners may have been found.
